{"source": "patent US20260273014A1", "about": "“Herbal composition for metabolic syndromes and method of treatment thereof” (priority 2019, published 2026)", "origin": "cited, not measured here", "target": "alpha amylase", "conditions": "cited from earlier work", "note": "For at least one compound, name, drawing or mass did not settle the structure.", "data": [{"smiles": "O=c1c2cc(O)c(O)cc2oc2cc(O)c([C@@H]3O[C@H](CO)[C@@H](O)[C@H](O)[C@H]3O)c(O)c12", "note": "[mangiferin]", "values": [{"measurement": "alpha amylase inhibitory effect IC50", "result": "74.35 ± 1.9", "unit": "µg/mL"}]}]}
